From PubChem BioAssay AID588590 (National Center for Advancing Translational Sciences (NCATS), 2011)
Several values for one entry are separate records, joined by “and”; a condition that tells them apart may be missing. Identical values can stand only once. Hit rate of the full screen: of about 390,000 compounds, about 4,000 (1%) were called active. Inconclusive results, whose numbers are uncertain, are shown with a selection of clear calls. Calls follow the shape of the dose curve; as a rule, active = well fitted inhibition curve with a large enough effect; inconclusive = small, poorly fitted or top-dose-only effect, or another doubt; inactive = no such curve, though single readings can be large or run the other way. Where the call is inconclusive, the potency comes from a doubtful curve fit.
Potency is read from the fitted curve at half-maximal effect.

Chains of the proteins cited; added tags and fusions are not shown. Lines headed by an entry give the natural chain unless they say otherwise; changes in a name come on top.
UniProt Q9UNA4: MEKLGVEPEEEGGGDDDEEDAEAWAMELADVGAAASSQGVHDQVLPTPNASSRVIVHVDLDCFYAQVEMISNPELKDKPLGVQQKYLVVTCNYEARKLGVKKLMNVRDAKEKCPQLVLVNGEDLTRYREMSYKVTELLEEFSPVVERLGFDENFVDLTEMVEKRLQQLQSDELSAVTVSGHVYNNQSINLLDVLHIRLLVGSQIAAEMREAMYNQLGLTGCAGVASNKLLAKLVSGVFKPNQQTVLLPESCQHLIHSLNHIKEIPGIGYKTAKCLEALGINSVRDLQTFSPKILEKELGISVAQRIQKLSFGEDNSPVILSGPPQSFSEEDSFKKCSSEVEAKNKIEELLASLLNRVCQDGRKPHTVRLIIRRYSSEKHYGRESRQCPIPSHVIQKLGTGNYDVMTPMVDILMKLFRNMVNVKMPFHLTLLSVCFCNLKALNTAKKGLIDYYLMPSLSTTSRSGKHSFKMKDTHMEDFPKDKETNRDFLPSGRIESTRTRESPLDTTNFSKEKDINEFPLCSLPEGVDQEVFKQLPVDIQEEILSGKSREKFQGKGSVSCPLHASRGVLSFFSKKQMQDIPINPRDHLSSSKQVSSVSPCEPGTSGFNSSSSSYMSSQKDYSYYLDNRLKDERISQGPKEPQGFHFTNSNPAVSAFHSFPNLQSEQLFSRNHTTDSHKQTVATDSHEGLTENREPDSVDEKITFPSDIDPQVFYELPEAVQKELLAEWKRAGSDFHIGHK

What follows are molecules tested against DNA polymerase iota (Homo sapiens) (UniProt Q9UNA4) (assay: qHTS for Inhibitors of Polymerase Iota). Conditions: Pol iota fluorescent replication assay, 10 min; series mostly up to 115 µM.
How it was run: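 Fluorescent replication assay read twice, at 0 min and 10 min after adding 50 nM (final) substrate. Enzyme (10 nM) and compounds were first incubated 15 min at room temperature; enzyme-free buffer wells were negative controls.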
For CCc1cc(C(=O)O)c(NC(=O)C(c2ccccc2)c2ccccc2)s1, the Potency was inconclusive: 39.8 µM [inhibitor, single point].
For Cc1ccc(OCc2ccc(-c3nc(C#N)c(NCc4ccccc4Cl)o3)o2)cc1, the Potency was “inactive”.
With Cc1cccc2c(C(=O)N3CCN(C(=O)c4ccco4)CC3)cc(-c3cccc(Br)c3)nc12 the Potency was inconclusive: 35.5 µM [inhibitor, single point].
For O=C(COC(=O)/C=C/c1ccccc1)Nc1nnc(-c2ccccc2)o1, the Potency was inconclusive: 50.1 µM [inhibitor, partial curve].
O=c1cc(-c2ccccc2)oc2ccc(O)cc12 was tested, and the Potency was “inactive”.
With O=C(Cc1cn2ccsc2n1)Nc1nc2c(s1)CN(Cc1ccccc1)CC2 the Potency was inconclusive: 35.5 µM [inhibitor, full curve, poor fit].
In the case of COCCNc1oc(/C=C/c2ccc(F)cc2)nc1C#N, the Potency is reported as “inactive”.
With CC1C(=O)N2CCCc3cc(S(=O)(=O)N4CCC(C(N)=O)CC4)cc1c32 (stereo unspecified) the Potency was inconclusive: 22.4 µM [inhibitor, full curve, poor fit].
With CC[n+]1c(C)sc2c(C)cc(C)cc21 the Potency was inconclusive: 3.16 µM [inhibitor, partial curve, poor fit].
CC(C)CC1C(=O)N2CCC[C@H]2[C@]2(O)O[C@](NC(=O)[C@@H]3C=C4c5cccc6[nH]c(Br)c(c56)C[C@H]4N(C)C3)(C(C)C)C(=O)N12 (stereo partly specified) was tested, and the Potency was “inactive”.
CC1(C)C(=O)Nc2ccccc2N1C(=O)CN1C(=O)NC(CCc2ccccc2)C1=O (stereo unspecified) was tested, and the Potency was inconclusive: 63.1 µM [inhibitor, partial curve, poor fit].
With N[C@@H](CCC(=O)N[C@@H](CSN=O)C(=O)NCC(=O)O)C(=O)O the Potency was “inactive”.
With Cc1nc2cc(NC(=O)NCCCO)ccc2o1 the Potency was “inactive”.
In the case of Cc1ccc(NC(=O)N2CCCn3c(SCC(=O)c4ccccc4)nnc32)cc1, the Potency is reported as inconclusive: 63.1 µM [inhibitor, single point].
For Cc1ccc(C)c(CN2C(=O)c3ccccc3S(=O)(=O)c3ccc(C(=O)N4CCN(c5ccccc5F)CC4)cc32)c1, the Potency was “inactive”.
O=S(=O)(Nc1ccc(-c2ccc(N3CCCC3)nn2)cc1)c1cccc(C(F)(F)F)c1 was tested, and the Potency was “inactive”.
In the case of Clc1ccc(Nc2nc(N3CCOCC3)nc(N3CCOCC3)n2)cc1Cl, the Potency is reported as inconclusive: 25.1 µM [inhibitor, partial curve, poor fit].
With CCOC(=O)c1c(NC(=O)/C=C/C(=O)O)sc(C)c1-c1ccc(Cl)cc1 the Potency was inconclusive: 28.2 µM [inhibitor, full curve].
In the case of COc1cccc(CN(C)CC2CCCN(CCc3ccccc3C)C2)c1 (stereo unspecified), the Potency is reported as inconclusive: 0.631 µM [inhibitor, full curve, poor fit].
In the case of C=CCNC(=O)C1(c2ccccc2)CC1(Cl)Cl (stereo unspecified), the Potency is reported as “inactive”.
CC1(C)CC(OC(=O)c2ccco2)CC(C)(C)N1O was tested, and the Potency was inconclusive: 89.1 µM [inhibitor, single point].
With COc1cccc(NC(=O)Cn2c(=O)n(CCCCC(=O)NCCc3ccccc3)c(=O)c3ccccc32)c1 the Potency was “inactive”.
In the case of Cc1ccc(-n2c(SCC(=O)NCc3ccco3)nc3sc(C)c(C)c3c2=O)cc1, the Potency is reported as “inactive”.
CC(C)N(CCC(=O)c1ccc2ccccc2c1)Cc1ccccc1 was tested, and the Potency was inconclusive: 31.6 µM [inhibitor, partial curve, poor fit] and inconclusive: 17.8 µM [inhibitor, partial curve, poor fit].
With COc1ccc(NC(=O)C2COc3ccccc3O2)cc1S(=O)(=O)N1CCOCC1 (stereo unspecified) the Potency was “inactive”.
In the case of CCOc1ccc(S(=O)(=O)Nc2ccccc2C(=O)NCc2ccco2)cc1, the Potency is reported as inconclusive: 39.8 µM [inhibitor, single point].
COc1ccc(CNC(=O)C2CC(c3cccc([N+](=O)[O-])c3)=NO2)cc1 (stereo unspecified) was tested, and the Potency was inconclusive: 79.4 µM [inhibitor, partial curve, poor fit].
For O=C(C[n+]1cc(Br)cc(Br)c1)c1ccc(I)cc1, the Potency was “inactive”.
For CCOC(=O)C1=C(C)NC(=S)NC1c1ccco1 (stereo unspecified), the Potency was active: 22.4 µM.
For Cc1csc(SCC(=O)Nc2ccc(S(=O)(=O)N3CCCC3)cc2)n1, the Potency was inconclusive: 79.4 µM [inhibitor, single point].
With O=C(Nc1ccc(O)cc1)C1CC=CCC1 (stereo unspecified) the Potency was inconclusive: 35.5 µM [inhibitor, partial curve].
With CN(C)c1ccc(CNS(=O)(=O)c2ccc3c(c2)C(C)(C)C(=O)N3C)cc1 the Potency was “inactive”.
In the case of COc1ccc(C(CNC(=O)COc2ccccc2)N2CCCCC2)cc1 (stereo unspecified), the Potency is reported as “inactive”.
CC(NC(=O)CC1SC(N)=NC1=O)c1ccccc1 (stereo unspecified) was tested, and the Potency was inconclusive: 100 µM [inhibitor, single point].
In the case of O=C(CCCN1C(=O)/C(=C\c2ccccc2)SC1=S)Nc1ccc(C(=O)O)cc1, the Potency is reported as inconclusive: 56.2 µM [inhibitor, partial curve, poor fit].
For Cc1ccc(N2CCN(c3ccc([N+](=O)[O-])cn3)CC2)c(C)c1, the Potency was inconclusive: 44.7 µM [inhibitor, single point].
In the case of COc1ccc(S(=O)(=O)N(C(C)=O)c2ccc(OC(C)=O)c3ccccc23)cc1[N+](=O)[O-], the Potency is reported as inconclusive: 17.8 µM [inhibitor, single point].
In the case of COc1ccc(NC(=O)CSc2nc(-c3ccco3)nc3cc(=O)[nH]n23)cc1, the Potency is reported as active: 79.4 µM.
For O=C(CCN1C(=O)/C(=C/c2ccccc2)SC1=S)NCCc1ccc(O)cc1, the Potency was inconclusive: 22.4 µM [inhibitor, single point].
With CN(C)C(=O)COC(=O)c1ccc(S(=O)(=O)NCc2ccco2)cc1 the Potency was inconclusive: 44.7 µM [inhibitor, partial curve, poor fit].
In the case of COc1ccc(C2NC(=O)N(C)C3=C2C(=O)N(c2ccc(F)cc2)C3)cc1 (stereo unspecified), the Potency is reported as “inactive”.
In the case of COc1ccc(S(=O)(=O)N2CCOCC2)cc1NC(=O)CSc1nc(C)c(C)c(C)n1, the Potency is reported as inconclusive: 31.6 µM [inhibitor, full curve].
O=C(O)c1ccccc1N=N/C(=N/Nc1cc(S(=O)(=O)O)ccc1O)c1ccccc1 was tested, and the Potency was inconclusive: 3.16 µM [inhibitor, full curve, poor fit].
With O=C(O)c1ccc(NC(=S)NC(=O)c2ccc(-c3ccccc3)cc2)cc1 the Potency was “inactive”.
With CCN(CC)CCOC(=O)c1ccc(NC(=O)CCCN2C(=O)S/C(=C/c3ccc(OC)cc3)C2=S)cc1 the Potency was inconclusive: 28.2 µM [inhibitor, single point].
With CCCSCC(=O)Nc1ncc2c(n1)-c1ccccc1CC2 the Potency was inconclusive: 25.1 µM [inhibitor, full curve, poor fit].
In the case of COc1ccc(C2CC(=O)Nc3ccccc3S2(=O)=O)cc1OC (stereo unspecified), the Potency is reported as inconclusive: 17.8 µM [inhibitor, partial curve, poor fit].
For Cc1ccc(NC(=O)c2cc(S(=O)(=O)N3CCCCC3)c[nH]2)cc1C, the Potency was “inactive”.
With O=C1CSC(=S)N1N=C1CCCCCC1 the Potency was inconclusive: 11.2 µM [inhibitor, full curve, poor fit].
In the case of CCOC(=O)C1(CC)NC(c2ccco2)C2C(=O)N(CC)C(=O)C21 (stereo unspecified), the Potency is reported as inconclusive: 3.16 µM [inhibitor, partial curve, poor fit].
For COc1ccc(C(=O)Nc2noc3ccccc23)cc1, the Potency was “inactive”.
CCN(CC(=O)NCc1cccs1)S(=O)(=O)c1cc(NC(C)=O)ccc1OC was tested, and the Potency was inconclusive: 44.7 µM [inhibitor, partial curve, poor fit].
COc1ccccc1-c1cc(C(F)(F)F)nc(S(C)(=O)=O)n1 was tested, and the Potency was inconclusive: 31.6 µM [inhibitor, partial curve, poor fit].
With NC(CSC(c1ccccc1)(c1ccccc1)c1cccc2ccccc12)C(=O)O (stereo unspecified) the Potency was inconclusive: 14.1 µM [inhibitor, full curve].
In the case of O=Cc1c(-c2ccccc2)cc2oc3ccccc3cc1-2, the Potency is reported as inconclusive: 11.2 µM [inhibitor, partial curve, poor fit].
For Cc1cc(=O)[nH]c(N/N=C/c2ccc(-c3ccc([N+](=O)[O-])cc3)o2)n1, the Potency was inconclusive: 25.1 µM [inhibitor, single point].
In the case of CC(=O)Oc1c2occc2cc2ccc(=O)oc12, the Potency is reported as inconclusive: 39.8 µM [inhibitor, single point].
COc1ccc(CNC(=O)c2ccc3c(c2)NC(=O)C(C)S3)cc1 (stereo unspecified) was tested, and the Potency was inconclusive: 25.1 µM [inhibitor, single point].
For CCCN=C1N(CC)C[C@@H]2[C@@H]3C(=O)N(Cc4ccccc4)C(=O)[C@@H]3[C@](Cc3ccccc3)(C(=O)OC)N12, the Potency was “inactive”.
In the case of N#C/C(=C/c1ccco1)C(N)=S, the Potency is reported as inconclusive: 14.1 µM [inhibitor, single point].
CC1CCN(S(=O)(=O)c2ccc(NC(=O)Cc3ccccc3)cc2)CC1 was tested, and the Potency was inconclusive: 112 µM [inhibitor, single point].
In the case of CCOC(=O)c1cc(C(C)(C)C)oc1CNC(=O)c1c(C)oc2c1CCCC2, the Potency is reported as inconclusive: 12.6 µM [inhibitor, partial curve, poor fit].
For Cc1occc1C(=O)NCc1ccccc1, the Potency was “inactive”.
For CSc1nc2c(c(=O)[nH]1)C(c1cccs1)C1=C(CCCC1=O)N2 (stereo unspecified), the Potency was inconclusive: 39.8 µM [inhibitor, full curve].
For CC(SCc1nc2sc3c(c2c(=O)[nH]1)CCCC3)C(=O)Nc1ccccn1 (stereo unspecified), the Potency was inconclusive: 17.8 µM [inhibitor, partial curve, poor fit].
With CCOCCCn1c(=N)c(C(N)=S)cc2c(=O)n3cccc(C)c3nc21 the Potency was inconclusive: 22.4 µM [inhibitor, single point].
